# Source: PubChem BioAssay AID2685 (National Center for Advancing Translational Sciences (NCATS), 2010)
# Hit rate of the full screen: of about 320,000 compounds, about 2,100 (0.66%) were called active. The shares of active, inactive and inconclusive entries below differ from those in the screen. Calls come from the whole dose curve; as a rule, active = well fitted inhibition curve with a large enough effect in the signal ratio, with a control signal flat (not every such curve was filed as active); inconclusive = small, poorly fitted or top-dose-only effect, or effect the other way, or a change in a side signal; inactive = flat fitted curve, though single readings scatter; the % refers to the signal ratio. Potencies of inconclusive entries are doubtful fits and often do not repeat.
# Test: qHTS Assay for Lipid Storage Modulators in Drosophila S3 Cells
# Details: BODIPY lipid droplet fluorescence, 18-24 h, cells fed with added oleic acid; lipid storage change, negative = inhibition: at 46.1 µM (top of the series) unless noted
# Procedure, shortened: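 Drosophila S3 cells loaded with oleic acid (400 uM, as added) and compounds at several concentrations; lipid droplets imaged by 488-nm laser-scanning cytometry, 500–530 nm intensity and object ratio to cell channel. Percent activity normalized to 20 uM Triacsin C.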
# % is set by controls: 0 for no effect and ±100 for the full control effect; potency is the fitted concentration of half-maximal effect.
SMILES,Potency,"lipid storage change, negative = inhibition"
Cc1cc(=O)oc2cc(OCC(=O)N3CCCC3)c(Cl)cc12,"inconclusive: 7.31 µM [falling, partial curve]",
COc1cc(CCC(=O)OCC(=O)c2ccc[nH]2)cc(OC)c1OC,,inconclusive: 6.84%
CCOC(=O)C1CCCCN1Cc1cc(Cl)ccc1O (stereo not drawn),,inactive
Cn1c(SCC(=O)NC(=O)NCc2ccco2)nnc1C(F)(F)F,,inconclusive: -2.37%
O=C(CCN1C(=O)/C(=C/c2ccccc2Cl)SC1=S)NN1CCOCC1,"inconclusive: 2.06 µM [falling, full curve, poor fit]",
O=C(Nc1nc2ccccc2s1)C1CC(=O)N(c2ccccc2)C1 (stereo not drawn),,inconclusive: -43.7%
CCCOC(=O)c1ccc(NC(=O)c2c(Cl)ccc(Cl)c2OC)cc1,,inconclusive: 8.23%
CCO[C@@H]1OC(C(=O)NCc2ccccc2)=C[C@H](c2ccc(Br)cc2)[C@H]1CCCO,,inconclusive: -15.1%
CN(CCCNC(=O)c1ccccc1F)CCCNC(=O)c1ccccc1F,"inconclusive: 18.4 µM [falling, single point]",
COc1ccccc1C1NC(=O)NC(C)=C1C(=O)OC1CCCCC1 (stereo not drawn),,inactive
Cn1c(=O)c2c(nc(Oc3ccc4c(c3)OCO4)n2Cc2ccc(Br)cc2)n(C)c1=O,,inconclusive: -4.76%
COc1ccc(CCC(=O)N2CC(C)OC(C)C2)cc1 (stereo not drawn),,inconclusive: 5.87%
Cc1ccc(N2CC(C(=O)OCC(=O)Nc3cccc(Cl)c3C)CC2=O)cc1 (stereo not drawn),,inconclusive: 21.7%
NC(=O)c1ccccc1NC(=O)C1CCCO1 (stereo not drawn),,inconclusive: -1.08%
Cc1cc(C)cc(NC(=S)N2CCC(NC(=O)c3ccccc3C)CC2)c1,,inconclusive: 18.5%
CCOC(=O)C1CCCN(C(=S)Nc2ccc(Nc3ccccc3)cc2)C1 (stereo not drawn),,inconclusive: -48.7% [cytotoxic] [at 0.00295 µM]
COc1ccc(CCNC(=O)C2CCN(S(=O)(=O)c3cccc4nsnc34)CC2)cc1OC,,inconclusive: 11.6%
COc1ccc(CCNC(=O)c2ccc(=O)[nH]c2)cc1OC,,inactive
CC(C)NC(=S)N/N=C/c1c[nH]c2ccccc12,,inconclusive: 7.74%
COC(=O)[C@@H]1C[C@H]1[C@@H](NC(=O)c1ccccc1)c1ccccc1,,inconclusive: 1.35%
Clc1ccc(/C=N/c2c(-c3ccc(Cl)cc3)nc3n2CCS3)cc1,,inconclusive: -12.4%
CSc1ccccc1NC(=O)C1=COCCO1,,inconclusive: 26.5%
CN(C)S(=O)(=O)c1ccc(C(=O)Nc2ccccc2[N+](=O)[O-])cc1,,inconclusive: 28.7%

# Grouped by structure: the entries above containing bromine (2)
SMILES,Potency,"lipid storage change, negative = inhibition"
CCO[C@@H]1OC(C(=O)NCc2ccccc2)=C[C@H](c2ccc(Br)cc2)[C@H]1CCCO,,inconclusive: -15.1%
Cn1c(=O)c2c(nc(Oc3ccc4c(c3)OCO4)n2Cc2ccc(Br)cc2)n(C)c1=O,,inconclusive: -4.76%
